Source: US20250034079A1, “PROCESS FOR RECOVERING AMINOBENZOIC ACID FROM AN AQUEOUS MOTHER LIQUOR” (Covestro Deutschland AG, priority 2021, published 2025)

How the values were obtained:
[1] = Distribution of organic secondary components into the organic extract phase (HPLC); type: physicochemical; settings: proportion by mass in organic extract phase, 30° C., phase ratio 0.5; for m(SC)ORG/m(SC)TOT Polar secondary components: impurities eluting earlier than oAB; for m(SC)ORG/m(SC)TOT Nonpolar secondary components: impurities eluting later than oAB
[2] = Acidic re-extraction of ortho-aminobenzoic acid from a solution in 1-decanol; type: physicochemical; settings: 1.5% by mass in 1-decanol, phase ratio 1.0, 30° C.

Row | Compound | m(SC)ORG/m(SC)TOT Polar secondary components [1] | m(SC)ORG/m(SC)TOT Nonpolar secondary components [1] | ortho-aminobenzoic acid recovered ([2]; hydrochloric acid 1.0 mol/L, one-stage extraction (example 12a)) | ortho-aminobenzoic acid recovered ([2]; hydrochloric acid 1.0 mol/L, three-stage extraction (example 12c)) | ortho-aminobenzoic acid recovered ([2]; hydrochloric acid 1.0 mol/L, two-stage extraction (example 12b)) | ortho-aminobenzoic acid recovered ([2]; sulfuric acid 1.0 mol/L, one-stage extraction (example 13a)) | ortho-aminobenzoic acid recovered ([2]; sulfuric acid 1.0 mol/L, three-stage extraction (example 13c)) | ortho-aminobenzoic acid recovered ([2]; sulfuric acid 1.0 mol/L, two-stage extraction (example 13b))
1 | Cc1ccccc1 [Toluene] | 0.00 | 0.29 |  |  |  |  |  | 
2 | CCCCOC(C)=O [Butyl acetate] | 0.08 | 0.62 |  |  |  |  |  | 
3 | Nc1ccccc1C(=O)O [ortho-aminobenzoic acid] |  |  | 87.4% | 99.5% | 98.1% | 90.3% | 99.3% | 99.3%
4 | CCCCCCCCCCO [1-Decanol] | 0.09 | 0.65 |  |  |  |  |  | 
5 | CCC(C)=O [2-Butanone] | 0.24 | 0.73 |  |  |  |  |  | 
